Binding data for two substances are collected here from PMC9778607.

Protein sequences, listed by entry. Tags and fused reporters are not part of them. Residues count along the entry.
UniProt O75460, residues 19-977: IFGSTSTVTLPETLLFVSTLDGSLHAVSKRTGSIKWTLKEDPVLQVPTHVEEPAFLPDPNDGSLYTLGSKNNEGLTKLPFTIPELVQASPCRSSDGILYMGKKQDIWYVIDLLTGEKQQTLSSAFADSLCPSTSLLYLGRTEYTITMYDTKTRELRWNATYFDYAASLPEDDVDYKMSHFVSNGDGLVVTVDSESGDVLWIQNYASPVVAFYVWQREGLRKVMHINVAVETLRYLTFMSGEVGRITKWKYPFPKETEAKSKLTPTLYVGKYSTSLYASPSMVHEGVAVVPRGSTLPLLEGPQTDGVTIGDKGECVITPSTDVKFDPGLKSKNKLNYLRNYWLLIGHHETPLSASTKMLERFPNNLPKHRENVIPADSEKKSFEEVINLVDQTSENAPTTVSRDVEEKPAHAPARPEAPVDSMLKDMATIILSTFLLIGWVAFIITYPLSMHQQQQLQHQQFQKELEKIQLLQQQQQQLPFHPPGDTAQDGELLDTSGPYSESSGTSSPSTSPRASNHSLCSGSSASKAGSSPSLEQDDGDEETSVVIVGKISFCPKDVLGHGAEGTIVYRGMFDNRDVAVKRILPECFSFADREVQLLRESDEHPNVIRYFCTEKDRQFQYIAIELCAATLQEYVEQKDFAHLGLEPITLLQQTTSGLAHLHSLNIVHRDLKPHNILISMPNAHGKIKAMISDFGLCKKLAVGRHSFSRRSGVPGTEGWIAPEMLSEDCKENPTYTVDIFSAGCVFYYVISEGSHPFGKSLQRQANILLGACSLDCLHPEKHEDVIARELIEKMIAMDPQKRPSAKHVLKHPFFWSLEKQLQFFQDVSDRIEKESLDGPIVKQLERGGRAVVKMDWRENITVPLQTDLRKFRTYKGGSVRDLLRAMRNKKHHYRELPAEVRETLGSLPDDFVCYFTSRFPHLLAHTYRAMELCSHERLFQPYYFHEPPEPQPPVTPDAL

Assay [1] has as its target T1, Epstein–Barr virus-induced gene 3 (EBI3), endogenous in human MSCs (human (endogenous in human bone marrow-derived MSCs)) (UniProt Q14213).
T1 sequence: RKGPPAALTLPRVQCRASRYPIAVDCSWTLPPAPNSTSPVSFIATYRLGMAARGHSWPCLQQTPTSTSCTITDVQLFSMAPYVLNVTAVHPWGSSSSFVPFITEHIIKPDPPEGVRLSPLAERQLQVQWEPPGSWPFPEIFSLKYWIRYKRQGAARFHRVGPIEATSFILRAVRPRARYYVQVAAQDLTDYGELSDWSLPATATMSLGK
As to the kind of experiment: co-IP; lysate of MSC pellets at day 2 of chondrogenesis; EBI3 antibody overnight at 4°C, protein A agarose 2 hours; Western blotting and CBB to detect p62. (Immunoblotting shows a protein as a band on a membrane.)

Assay [2] deals with T2, V5-tagged EBI3 (ectopic, from pEF6-EBI3-V5) (human) (UniProt Q14213).
T2 sequence: T1 sequence
As to the kind of experiment: co-IP; MSCs in monolayer transfected with pEF6-EBI3-V5 for 48 hrs, then IL-1β for 24 hrs; anti-V5-tag pAb-agarose with 100 μg protein in 100 μl lysis buffer, 2 hours at 4°C; Western blotting for IRE1α and EBI3.

These are yes or no findings as the source states them, for the method shown. Binding seen in cells or lysates may run through a third protein. Some entries that bind do so weakly or less than the wild type. For some assays here: Tags and fused reporters may be left off the sequences shown.

On to “p62 (EBI3-associated protein) (from UniProt Q13501 1-440)”, for which the binding result in assay [1] is reported as “binds”.

Take “inositol-requiring enzyme 1 α (IRE1α) (from UniProt O75460 19-977)”: the binding result in assay [2] is on record as “no binding”.
